No constants are given. Whether binding was seen depends on the method and setting. One block for each binder: values may come before it.
Assays:
[1] = target: rSlpA_(291-435) (Lactobacillus brevis ATCC 8287) (UniProt Q05044); test: precipitation after dialysis from GHCl (self-assembly test); affinity purified protein dissolved in 5 M GHCl at 1 mg/ml, dialysed against PBS for two hours at 4°C, centrifuged 16,000 x g 30 min, precipitate checked by SDS-PAGE; both purified
[2] = target: rSlpA_(210-435) (Lactobacillus brevis ATCC 8287) (UniProt Q05044); test: as above

binding [1]: no binding (tested: 1 mg/ml)
B1: rSlpA_(291-435) (domain or fragment, UniProt Q05044 321-465)
chain: SQAATSKVALKVSGTPVTTALTTADANDKVAANDTTANGSSVAGSTVYAAGTKLAQLTTDLTGEKGQVVTLTAIDTDLEDATFTGTTTYYSDLGKAYHYTYTYNKDSAASSNASTQFGSNVTGTLTATLVMGKSTATANGTTWFN

binding [2]: no binding (tested: 1 mg/ml)
B2: rSlpA_(210-435) (domain or fragment, UniProt Q05044 240-465)
chain: VTATNDNSVKIVYRTTDGTQVGSNTWVTSTDGTKAGSKVSDKAADQTALEAYINANKPSGYTVTNPNAADATYGNTVYATVSQAATSKVALKVSGTPVTTALTTADANDKVAANDTTANGSSVAGSTVYAAGTKLAQLTTDLTGEKGQVVTLTAIDTDLEDATFTGTTTYYSDLGKAYHYTYTYNKDSAASSNASTQFGSNVTGTLTATLVMGKSTATANGTTWFN

Reference: paper PMC2571106 (BMC Microbiology, 2008)
